The values that follow come from the supplement of paper PMC8104966.

Some of the results follow. Repeats in this data set agree poorly, so a single value says little.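 U2OS cells expressing ACE2 were combined with U2OS cells expressing full-length spike, and imaging quantified fusion as the fraction of nuclei displaying both cell types' fluorescent markers. Non-toxic compounds with a fusion z-score under -3, i.e., over three standard deviations below the plate's DMSO wells, are called inhibitory hits.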

In the test the test system is U2OS ACE2 x SARS-CoV-2 spike co-culture. Nature of the test: cell-cell fusion (fraction fused) z-score vs plate DMSO control; higher = more fusion. The following applies: 30 µM; 5 h; toxicity class: non-toxic, passed QC.
With `O=C([O-])CCNC(=O)c1ccc(/N=N/c2ccc(O)c(C(=O)[O-])c2)cc1.[Na+].[Na+]`, the “cell-cell fusion (z-score)” value is inactive: 2.8.

Take `O=C(O)CSc1nnc(Br)n1-c1ccc(C2CC2)c2ccccc12` [Lesinurad]: the “cell-cell fusion (z-score)” value was inactive: 1.05.

Regarding `COc1ccc2cc([C@H](C)C(=O)O)ccc2c1` [Naproxen], the “cell-cell fusion (z-score)” value was inactive: 0.773.

Regarding `CC(C)(C)c1[nH]cnc1/C=c1\[nH]c(=O)/c(=C/c2ccccc2)[nH]c1=O` [NPI-2358 (Plinabulin)], the “cell-cell fusion (z-score)” value is inactive: 1.32.

As for `CC(=O)N(O)CCCCCNC(=O)CCC(=O)N(O)CCCCCNC(=O)CCC(=O)N(O)CCCCCN.CS(=O)(=O)O` [Deferoxamine Mesylate], the “cell-cell fusion (z-score)” value is inactive: 2.85.

Take `CC(=O)N(O)CCCCCNC(=O)CCC(=O)N(O)CCCCCNC(=O)CCC(=O)N(O)CCCCCN.CS(=O)(=O)O`: the “cell-cell fusion (z-score)” value was inactive: 1.04.

In the case of `C=CC1=C(C(=O)O)N2C(=O)[C@@H](NC(=O)/C(=N\OCC(=O)O)c3csc(N)n3)[C@H]2SC1` [Cefixime], the “cell-cell fusion (z-score)” value was inactive: 4.26.

`CCCCCCCC/C=C\CCCCCCCC(=O)NCc1ccc(O)c(OC)c1` [Olvanil]: the “cell-cell fusion (z-score)” value is inactive: 2.33.

Turning to `Cl.c1ccc2c(CC3=NCCN3)cccc2c1`, the “cell-cell fusion (z-score)” value is inactive: 1.13.

As to `N#Cc1cc([N+](=O)[O-])c2sc(C(N)=O)[n+]([O-])c2c1`, the “cell-cell fusion (z-score)” value is inactive: 0.892.

Consider `Cl.[NH-]c1c[n+](N2CCOCC2)no1` [3-Morpholinosydnonimine hydrochloride], for which the “cell-cell fusion (z-score)” value is inactive: 1.9.

Turning to `C#CCCCCCCCCCCCC(O)CC(O)CO` (configuration not stated), the “cell-cell fusion (z-score)” value was inactive: 1.33.

For `CCOC(=O)CCC(=O)O[C@H]1[C@H](O[C@@H]2[C@@H](C)[C@H](O[C@H]3C[C@@](C)(OC)[C@@H](O)[C@H](C)O3)[C@@H](C)C(=O)O[C@H](CC)[C@@](C)(O)[C@H](O)[C@@H](C)C(=O)[C@H](C)C[C@@]2(C)O)O[C@H](C)C[C@@H]1N(C)C`, the “cell-cell fusion (z-score)” value was inactive: 0.948.

Take `CN1CCC(=C2c3ccccc3CCc3sccc32)CC1.O=C(O)CC(O)C(=O)O`: the “cell-cell fusion (z-score)” value is inactive: 0.169.

Regarding `NCC(CP(=O)(O)O)c1ccc(Cl)cc1` (configuration not stated) [Phaclofen], the “cell-cell fusion (z-score)” value is inactive: 1.28.

For the compound `Cl.NC1C=CC=C(C(=O)O)C1` (configuration not stated) [Gabaculine hydrochloride], the “cell-cell fusion (z-score)” value is inactive: 1.88.

On to `CN1CCN(c2nc3cc(C(F)(F)F)ccc3n3cccc23)CC1.O=C(O)/C=C\C(=O)O`, for which the “cell-cell fusion (z-score)” value is inactive: 3.1.

`CO[C@H]1/C=C/O[C@@]2(C)Oc3c(C)c(O)c4c(O)c(c(C=NN5CCN(C)CC5)c(O)c4c3C2=O)NC(=O)/C(C)=C\C=C\C(C)[C@H](O)[C@@H](C)[C@@H](O)[C@@H](C)[C@@H](OC(C)=O)[C@@H]1C` (some centres not stated): the “cell-cell fusion (z-score)” value was inactive: 3.88.

Turning to `O=C(O[C@@H]1Cc2c(O)cc(O)cc2O[C@@H]1c1cc(O)c(=O)c2c(O)c(O)cc([C@H]3Oc4cc(O)cc(O)c4C[C@H]3OC(=O)c3cc(O)c(O)c(O)c3)c2c1)c1cc(O)c(O)c(O)c1`, the “cell-cell fusion (z-score)” value is inactive: 1.57.

In the case of `CCC(C)(C)O`, the “cell-cell fusion (z-score)” value is inactive: 0.722.

On to `C#CCN[C@@H]1CCc2ccccc21.CS(=O)(=O)O` [Rasagiline Mesylate], for which the “cell-cell fusion (z-score)” value was inactive: 1.24.

With `CC(C)=O.COC(=O)N[C@H](C(=O)N1CC2(CC2)C[C@H]1c1ncc(-c2ccc3c(c2)C(F)(F)c2cc(-c4ccc5nc([C@@H]6[C@H]7CC[C@H](C7)N6C(=O)[C@@H](NC(=O)OC)C(C)C)[nH]c5c4)ccc2-3)[nH]1)C(C)C` [Ledipasvir acetone], the “cell-cell fusion (z-score)” value is inactive: 1.08.

On to `[Na+].[Na+].[O-]c1c(Cl)cc(Cl)cc1Sc1cc(Cl)cc(Cl)c1[O-]`, for which the “cell-cell fusion (z-score)” value is inactive: -0.229.

As to `O=C1NC(=O)/C(=C/c2ccc3nccc(-c4ccncc4)c3c2)S1`, the “cell-cell fusion (z-score)” value was inactive: -0.0606.

As to `C[C@H]1C[C@H]2[C@@H]3CCC4=CC(=O)C=C[C@]4(C)[C@H]3C(=O)C[C@]2(C)[C@@]1(O)C(=O)CO` [Meprednisone], the “cell-cell fusion (z-score)” value was inactive: 2.47.

Turning to `CC(C)[N+](C)(CCC(C(N)=O)(c1ccccc1)c1ccccc1)C(C)C.[I-]` [Isopropamide Iodide], the “cell-cell fusion (z-score)” value was inactive: 0.637.

Turning to `CC(C)(C)c1cc(/C=C(\C#N)C(N)=S)cc(C(C)(C)C)c1O` [Tyrphostin AG 879], the “cell-cell fusion (z-score)” value is inactive: 0.469.

In the case of `Cc1onc(-c2ccccc2)c1C(=O)NC1C(=O)N2[C@@H]1SC(C)(C)[C@@H]2C(=O)[O-].[Na+]` (some centres not stated), the “cell-cell fusion (z-score)” value was inactive: 0.651.

`COc1ccc(C(=O)CCC(=O)O)c2ccccc12`: the “cell-cell fusion (z-score)” value was inactive: 1.89.

As for `Cc1ccc(-c2cc(C(F)(F)F)nn2-c2ccc(S(N)(=O)=O)cc2)cc1` [Celecoxib], the “cell-cell fusion (z-score)” value was inactive: 0.693.

Take `CCCCOc1ccc(CC(=O)NO)cc1`: the “cell-cell fusion (z-score)” value was inactive: -1.36.

Regarding `CCCCC(O)c1ccccc1` (configuration not stated), the “cell-cell fusion (z-score)” value is inactive: 3.35.

On to `COc1c(N2CCNC(C)C2)c(F)cc2c(=O)c(C(=O)O)cn(C3CC3)c12.NCCO` (configuration not stated), for which the “cell-cell fusion (z-score)” value is inactive: 2.47.

As for `O=C(NC(Cc1cc(=O)[nH]c2ccccc12)C(=O)O)c1ccc(Cl)cc1` (configuration not stated), the “cell-cell fusion (z-score)” value was inactive: 2.52.

For `S=c1nc[nH]c2nc[nH]c12` [Mercaptopurine], the “cell-cell fusion (z-score)” value is inactive: 2.85.

Regarding `Cc1cnc(C(=O)O)c[n+]1[O-]`, the “cell-cell fusion (z-score)” value is inactive: 1.04.

`CC(C)=CCOc1c2occc2cc2ccc(=O)oc12` [Imperatorin]: the “cell-cell fusion (z-score)” value is inactive: 2.07.

With `O.O.O.[Cl-].CN(C)c1ccc2nc3cc\c(cc3sc2c1)=[N+](/C)C` [Methylene Blue trihydrate], the “cell-cell fusion (z-score)” value was inactive: -2.61.

As for `COc1cc(O)c(C(C)=O)c(OC)c1`, the “cell-cell fusion (z-score)” value was inactive: 1.89.

Take `Cc1cc2c(s1)Nc1ccccc1N=C2N1CCN(C)CC1` [Olanzapine]: the “cell-cell fusion (z-score)” value is inactive: 3.08.

As to `Nn1nnc2ccccc21` [1-Aminobenzotriazole], the “cell-cell fusion (z-score)” value was inactive: 1.69.

`CCN(C)C(=O)Oc1cccc([C@H](C)N(C)C)c1.O=C(O)[C@H](O)[C@@H](O)C(=O)O`: the “cell-cell fusion (z-score)” value is inactive: -2.12.

As for `OCC(Br)(Br)Br`, the “cell-cell fusion (z-score)” value is inactive: 3.46.

Consider `COc1ccccc1N1CCN(CCN2C(=O)CC3(CCCC3)CC2=O)CC1.Cl.Cl` [BMY 7378 dihydrochloride], for which the “cell-cell fusion (z-score)” value is inactive: 2.48.

Turning to `O=C(O)Cn1c(C(=O)Nc2nc(-c3ccccc3Cl)cs2)cc2ccccc21`, the “cell-cell fusion (z-score)” value was inactive: 2.92.

For the compound `O=C1NC(=O)C(=O)C(=O)N1`, the “cell-cell fusion (z-score)” value was inactive: 1.76.

As for `CCCC[C@@H](CC)COC(=O)C(C#N)=C(c1ccccc1)c1ccccc1`, the “cell-cell fusion (z-score)” value is inactive: 0.896.

Take `CCc1ccc2c(-c3cccc(Cl)c3)nc(=O)n(CC)c2n1`: the “cell-cell fusion (z-score)” value was inactive: 1.67.

Turning to `COc1cc2c(cc1Cc1cccc(Cl)c1F)c(=O)c(C(=O)O)cn2[C@H](CO)C(C)C` [Elvitegravir], the “cell-cell fusion (z-score)” value was active: -4.55.

As to `Cc1cc(NC2CCCCC2)nc(-n2nc(C)cc2C)n1`, the “cell-cell fusion (z-score)” value is inactive: 2.03.

In the case of `COc1ccc(CC(C)(C)NC[C@H](O)c2cc(O)cc3c2OCC(=O)N3)cc1` [Olodaterol], the “cell-cell fusion (z-score)” value was inactive: 1.02.

As to `O=C(/C=C/c1cccc(S(=O)(=O)Nc2ccccc2)c1)NO` [Belinostat], the “cell-cell fusion (z-score)” value is inactive: 1.12.

With `O=C(O[C@@H]1Cc2c(O)cc(O)cc2O[C@@H]1c1cc(O)c(O)c(O)c1)c1cc(O)c(O)c(O)c1`, the “cell-cell fusion (z-score)” value was inactive: 2.82.

On to `CN1CCN(C2=Nc3ccccc3Oc3ccc(Cl)cc32)CC1.O=C(O)CCC(=O)O` [Loxapine succinate], for which the “cell-cell fusion (z-score)” value is inactive: 1.71.

Regarding `CN1CCN(C2=Nc3ccccc3Oc3ccc(Cl)cc32)CC1.O=C(O)CCC(=O)O`, the “cell-cell fusion (z-score)” value is inactive: 2.1.

As for `Oc1ccc(/C=C/c2cc(O)cc(O)c2)cc1`, the “cell-cell fusion (z-score)” value is inactive: 2.25.

Turning to `Oc1ccc(/C=C/c2cc(O)cc(O)c2)cc1` [Resveratrol], the “cell-cell fusion (z-score)” value is inactive: 2.03.
